PubChem BioAssay AID504808 – Drosophila RNAi Screening Center, 2011

- Assay: 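Chromatin factors that keep E2F targets switched off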 (primary screen)
- Cell system: Drosophila S2 cells
- Reagents: long dsRNA against Drosophila genes
- Detection: 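Dual luciferase plate measurements; E2F-specific signal taken as firefly over Renilla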
- Direction: E2F firefly: higher = more E2F reporter activity; Renilla normaliser: higher = more normaliser reporter signal
- Call rule: 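Called active if the normalised E2F reporter went up by over 50%; the cutoff is arbitrary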
The screen tested about 21,000 reagents; this is an unselected part of those that have a named target and a result. In the full data, 18 (0.084%) are marked active. 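Raw counts without plate normalisation, one of two replicates; the ratio scores behind the calls were not deposited.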 A number with no mark means an inactive call. A plus sign joins genes that one reagent is predicted to hit. Reagent sequences are not shown. The record does not give: the amount of reagent, the time to read-out.

The first 3 entries as a preview:
gene	DRSC id	E2F firefly, rep 1	Renilla normaliser, rep 1
Dyb (Dystrobrevin)	DRSC07208	78087	12720
U2af38 (U2 small nuclear riboprotein auxiliary factor 38)	DRSC00796	83760	3881
CG3987	DRSC15531	76851	3868

The listing, from the start:
gene	DRSC id	E2F firefly, rep 1	Renilla normaliser, rep 1
Dyb (Dystrobrevin)	DRSC07208	78087	12720
U2af38 (U2 small nuclear riboprotein auxiliary factor 38)	DRSC00796	83760	3881
CG3987	DRSC15531	76851	3868
IA-2 (IA-2 protein tyrosine phosphatase)	DRSC00304	90930	3839
IA-2 (IA-2 protein tyrosine phosphatase)	DRSC00652	74942	4142
Naa60 (N(alpha)-acetyltransferase 60)	DRSC10301	1.32e5	7043
slp1 (sloppy paired 1)	DRSC00835	74755	3937
BicD (Bicaudal D)	DRSC02006	88100	3887
Sgt (small glutamine-rich tetratricopeptide containing protein)	DRSC02812	71659	3234
Sdr (Secreted decoy of InR)	DRSC15517	71494	3588
ECSIT	DRSC12348	1.41e5	7421
CG1324	DRSC20496	1.62e5	5294
cer (crammer)	DRSC05992	1.42e5	5717
fipi (factor of interpulse interval)	DRSC00465	1.27e5	5155
CG16719	DRSC10222	67974	3353
Amy-p (Amylase proximal)	DRSC06786	1.40e5	5687
Creld (Cysteine rich with EGF like domains)	DRSC00308	1.48e5	4666
Jon99Ci (Jonah 99Ci)	DRSC16860	1.23e5	6940
JMJD6 (Jumonji domain containing 6)	DRSC15787	72082	3397
Usp10 (Ubiquitin specific protease 10)	DRSC08282	74632	3182
Usp10 (Ubiquitin specific protease 10)	DRSC08373	75035	3626
CG43737	DRSC19609	1.48e5	5985
ng3 (new glue 3)	DRSC18804	1.04e5	5691
CG4404	DRSC19897	55536	4738
dup (double parked)	DRSC07088	2.12e5 (active)	4545
crim (crimpled)	DRSC10573	63593	2850
Mf (Myofilin)	DRSC16120	1.08e5	5975
capt (capulet)	DRSC00676	1.49e5	5380
capt (capulet)	DRSC00806	1.63e5	5865
CG31693	DRSC03674	1.14e5	4623
Pex7 (Peroxin 7)	DRSC10651	1.05e5	4001
Or22c (Odorant receptor 22c)	DRSC00766	1.70e5	6137
CG3502 + CG9863	DRSC04578	1.08e5	4454
